PMC3701667
These are yes or no findings as the source states them, for the method shown. In cells and extracts the contact can be indirect. Binding calls can cover weak binding; strength is not graded here. Sequences can lack the tags named with a protein.

Molecular target: T1, Flag-tagged human pyruvate carboxylase, wild type (human) (UniProt P11498)
T1 sequence: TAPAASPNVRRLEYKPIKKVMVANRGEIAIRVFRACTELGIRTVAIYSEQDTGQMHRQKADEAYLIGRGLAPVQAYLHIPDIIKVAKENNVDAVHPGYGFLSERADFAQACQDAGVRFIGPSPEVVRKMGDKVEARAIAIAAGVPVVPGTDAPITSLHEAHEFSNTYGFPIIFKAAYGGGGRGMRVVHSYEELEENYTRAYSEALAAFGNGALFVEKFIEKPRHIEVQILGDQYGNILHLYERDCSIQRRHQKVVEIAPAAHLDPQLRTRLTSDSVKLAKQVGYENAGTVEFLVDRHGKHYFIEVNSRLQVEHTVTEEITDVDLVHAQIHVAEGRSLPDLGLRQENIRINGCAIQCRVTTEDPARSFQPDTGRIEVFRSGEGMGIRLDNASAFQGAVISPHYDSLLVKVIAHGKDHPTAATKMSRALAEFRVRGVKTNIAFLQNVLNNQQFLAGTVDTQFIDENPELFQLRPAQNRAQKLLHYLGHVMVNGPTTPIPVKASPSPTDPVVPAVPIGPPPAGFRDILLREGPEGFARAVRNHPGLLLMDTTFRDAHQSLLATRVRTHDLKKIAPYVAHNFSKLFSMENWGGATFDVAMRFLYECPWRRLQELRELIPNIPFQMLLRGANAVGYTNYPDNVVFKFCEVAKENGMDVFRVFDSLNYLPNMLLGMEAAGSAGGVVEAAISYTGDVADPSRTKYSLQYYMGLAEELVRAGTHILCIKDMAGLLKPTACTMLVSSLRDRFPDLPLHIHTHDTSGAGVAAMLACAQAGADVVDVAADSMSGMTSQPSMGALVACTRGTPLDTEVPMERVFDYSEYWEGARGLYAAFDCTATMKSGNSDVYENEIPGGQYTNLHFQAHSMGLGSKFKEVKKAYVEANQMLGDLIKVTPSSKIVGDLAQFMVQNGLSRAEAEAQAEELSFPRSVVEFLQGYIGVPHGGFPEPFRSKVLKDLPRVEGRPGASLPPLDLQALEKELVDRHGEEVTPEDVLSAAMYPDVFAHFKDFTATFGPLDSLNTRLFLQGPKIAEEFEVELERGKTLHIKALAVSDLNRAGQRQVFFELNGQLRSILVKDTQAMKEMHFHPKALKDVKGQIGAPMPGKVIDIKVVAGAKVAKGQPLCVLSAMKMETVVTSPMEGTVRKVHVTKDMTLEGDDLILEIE
Assay: co-IP; HEK293T cells cotransfected, lysates at 24 h; immunoprecipitated with anti-Flag antibody, blotted with anti-Myc antibody

Myc-tagged N-terminal region (1-146) of NS5A, genotype 1b (hepatitis C virus genotype 1b) (domain or fragment)
binding: binds
